PubChem BioAssay AID743454, Peter MacCallum Cancer Centre, 2014

Test: 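Search for knock-downs that restore vorinostat killing in resistant colon cancer cells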 (primary screen)
Cell system: human HCT116-VR colon cancer cells, selected for vorinostat resistance
Knock-down reagent: siRNA pool against human genes, 40 nM siRNA pool
Timing: vorinostat for 24 h, read-out about 72 h after transfection
Conditions: vorinostat at 2.5 µM final
Detection: 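Two measures, CellTiter-Fluor viability and luminescent caspase 3/7 activity, each as fold change against same-plate mock wells, mean of duplicates, then screen-wide robust z-score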
Reading the numbers: viability robust z-score: higher = more viable cells than screen typical; caspase robust z-score: higher = more caspase 3/7 activity than screen typical
Call rule: 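Hits are knock-downs in viability class RV1/RV2 or caspase class CA1/CA2, excluding ones that killed cells in the no-drug cell-count arm; hits then retested with single siRNAs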
In all, the deposit lists about 18,000 reagents; this is a part drawn at random. 450 of them (2.5%) count as active. 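Single biological run; no consistent viability z cut-off exists, so the class columns, not z-scores, define the calls.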 No sequences are given here.

| gene symbol | viability hit class | caspase hit class | viability robust z-score | caspase robust z-score | Call |
| --- | --- | --- | --- | --- | --- |
| SPATC1 | no change | no change | 0.26 | -1.22 | inactive |
| SPR | no change | no change | 0.87 | -0.36 | inactive |
| EIF3C | no change | no change | -3.51 | -1.15 | inactive |
| TMSB15A | no change | no change | 0.48 | 0.29 | inactive |
| SPOCK2 | no change | no change | -0.12 | 0.54 | inactive |
| PARPBP | no change | no change | 0.96 | -0.62 | inactive |
| DERA | no change | no change | -0.64 | 0.02 | inactive |
| RNF168 | no change | no change | -0.26 | 0.36 | inactive |
| TAAR1 | no change | no change | 0.59 | -0.54 | inactive |
| TNS4 | no change | no change | 0.45 | 0.09 | inactive |
| GIT1 | no change | no change | 0.38 | 1.37 | inactive |
| ABCA13 | no change | no change | 0.2 | -0.44 | inactive |
| KRT72 | no change | no change | 0.52 | -0.52 | inactive |
| RABGAP1L | no change | no change | -1.88 | 3.7 | inactive |
| GNB5 | no change | no change | -1 | 0.92 | inactive |
| PRRT2 | no change | no change | -0.68 | 0.88 | inactive |
| RGMB | no change | no change | 0.16 | -0.04 | inactive |
| CLEC18A | no change | no change | 0.08 | 1.12 | inactive |
| MARK1 | no change | no change | -0.03 | -0.1 | inactive |
| IMPA1 | no change | no change | 0.37 | -0.1 | inactive |
| IGF1R | no change | no change | 0.18 | 0.15 | inactive |
| KRABD3 | no change | no change | -0.77 | 0.32 | inactive |
| DESI2 | no change | no change | -1.06 | 4.69 | inactive |
| SEC11C | no change | no change | 0.62 | 0.79 | inactive |
| SMAD6 | no change | no change | 1.44 | 0.13 | inactive |
| ZNF431 | no change | no change | 1.09 | -0.13 | inactive |
| NFATC3 | no change | no change | 1.49 | -0.64 | inactive |
| AKAP8 | no change | CA1 (caspase activation) | 0.04 | 6.26 | active |
| EPPK1 | no change | no change | 1.77 | 2.12 | inactive |
| TMEM97 | no change | no change | 0.08 | -0.58 | inactive |
| CPXM2 | no change | no change | 0.02 | -0.03 | inactive |
| TPP1 | no change | no change | 0.84 | 0.15 | inactive |
| ZNF296 | no change | no change | 0.72 | -1.17 | inactive |
| OR5T3 | no change | no change | -1.27 | 2.81 | inactive |
| NPRL3 | no change | no change | 0.77 | -0.03 | inactive |
| FAM151B | no change | no change | -0.6 | -1 | inactive |
| HHAT | no change | no change | -1.34 | -0.2 | inactive |
| KAT6A | no change | no change | 0.33 | 0.41 | inactive |
| LRRC37A3 | no change | no change | 1.52 | -0.68 | inactive |
| TRPC4 | no change | no change | -0.98 | 0.28 | inactive |
| CARMIL2 | no change | no change | 0.86 | 2.86 | inactive |
| CDY2B | no change | no change | -2.58 | 2.23 | inactive |
| POLR1B | no change | no change | -1.16 | 0.03 | inactive |
| NDN | no change | no change | -0.3 | 1.31 | inactive |
| VPS11 | no change | CA2 (caspase activation) | -2.35 | 5.77 | active |
| CARMIL3 | no change | no change | -0.94 | 0.78 | inactive |
| TGFBR3 | no change | no change | 0.68 | 2.59 | inactive |
| MACROD2 | no change | no change | -0.9 | -1 | inactive |
| CERS2 | no change | no change | 0.88 | 1.23 | inactive |
| ORC6 | no change | no change | 1.25 | -0.38 | inactive |
| PLCD1 | no change | no change | -0.3 | 1.31 | inactive |
| AGO3 | no change | no change | 1.86 | 0.06 | inactive |
| TRAK2 | no change | no change | 0.29 | 1.4 | inactive |
| C8A | no change | no change | 0.46 | -0.58 | inactive |
| GJD4 | no change | no change | 0.72 | -0.52 | inactive |
| PHYKPL | no change | no change | 0.17 | 0.8 | inactive |
| SHBG | no change | no change | -0.96 | 0.1 | inactive |
| NDUFC2 | no change | no change | 1.03 | -0.77 | inactive |
| TIMP4 | no change | no change | 0.54 | -0.74 | inactive |
| CCDC25 | no change | no change | -1.82 | -0.29 | inactive |
| FNDC11 | no change | no change | 0.98 | -0.75 | inactive |
| MYLK2 | no change | no change | -2.66 | 3.9 | inactive |
| CNOT8 | no change | no change | 0.44 | -0.11 | inactive |
| TSC22D4 | no change | no change | 1.1 | -0.38 | inactive |
| CDIPT | no change | no change | -0.48 | -0.7 | inactive |
| UBE2O | no change | no change | -0.88 | 1.5 | inactive |
| MPST | no change | no change | -1.68 | -0.41 | inactive |
| KRT39 | no change | no change | 0.26 | -0.08 | inactive |
| MON1A | no change | no change | 0.16 | 1.89 | inactive |
| AGPAT4 | no change | no change | -0.82 | -1.18 | inactive |
| TUSC1 | no change | no change | 1.31 | 1.09 | inactive |
| TAFA4 | no change | no change | 0.24 | -0.92 | inactive |
| CALCB | no change | no change | 0.85 | 2.27 | inactive |
